Source: article PMC6777364
No constants are given. Whether binding was seen depends on the method and setting. In cells and extracts the contact can be indirect.

Amino acid sequences for entries named in this document (tags omitted). A change or cut given only in a name is not applied to a line headed by its entry. Residues count along the entry.
UniProt Q9UL25: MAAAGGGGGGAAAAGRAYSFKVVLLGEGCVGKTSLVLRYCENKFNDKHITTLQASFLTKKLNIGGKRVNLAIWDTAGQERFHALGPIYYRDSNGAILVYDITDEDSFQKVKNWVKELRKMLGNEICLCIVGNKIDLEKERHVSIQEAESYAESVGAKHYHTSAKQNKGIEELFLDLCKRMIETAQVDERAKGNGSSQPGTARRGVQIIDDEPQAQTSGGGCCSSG
UniProt O43493, residues 22-437: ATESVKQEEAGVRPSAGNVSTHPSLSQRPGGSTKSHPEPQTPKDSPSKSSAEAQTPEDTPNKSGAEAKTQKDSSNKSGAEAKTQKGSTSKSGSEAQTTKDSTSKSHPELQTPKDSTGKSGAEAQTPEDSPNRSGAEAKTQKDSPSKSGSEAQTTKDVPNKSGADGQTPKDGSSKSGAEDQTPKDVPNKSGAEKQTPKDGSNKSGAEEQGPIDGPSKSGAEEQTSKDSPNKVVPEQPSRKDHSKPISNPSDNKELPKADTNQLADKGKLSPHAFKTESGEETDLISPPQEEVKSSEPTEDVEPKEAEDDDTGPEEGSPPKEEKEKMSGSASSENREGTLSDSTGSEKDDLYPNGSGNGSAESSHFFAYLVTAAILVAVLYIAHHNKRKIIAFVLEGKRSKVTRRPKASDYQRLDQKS
UniProt Q15363, residues 21-201: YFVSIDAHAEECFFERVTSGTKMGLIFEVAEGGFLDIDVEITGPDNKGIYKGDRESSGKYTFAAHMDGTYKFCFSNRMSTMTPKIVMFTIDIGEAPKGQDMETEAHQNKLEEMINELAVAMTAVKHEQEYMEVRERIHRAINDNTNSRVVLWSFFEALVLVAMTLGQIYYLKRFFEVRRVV

Experiments:
GFP:RAB21-WT = GFP:RAB21-WT (UniProt Q9UL25); test: co-IP; GFP:RAB21 immunoprecipitation blotted for TGN38 (Fig. S1B); cell line not given
[1] = biological target: GST:RAB21-Q78L (GTP-bound) (UniProt Q9UL25); test: pull-down; GST:RAB21 beads incubated with HeLa cell lysate, 1 h at 4°C, MLB modified buffer (1% IGEPAL CA-630, 100 µM GTP, 25 mM HEPES, 150 mM NaCl, 20 mM MgCl2); blots; only the target purified
GST:RAB21 = GST:RAB21 (UniProt Q9UL25); test: as above

For TGN38 (from UniProt O43493 22-437), the binding (GFP:RAB21-WT) was “no binding”.

In the case of TMED2 (from UniProt Q15363 21-201), the binding [1] is reported as “no binding” and the binding (GST:RAB21) is reported as “no binding”.

B1: endogenous TMED10 (protein, UniProt P49755 32-219)
chain: ISFHLPINSRKCLREEIHKDLLVTGAYEISDQSGGAGGLRSHLKITDSAGHILYSKEDATKGKFAFTTEDYDMFEVCFESKGTGRIPDQLVILDMKHGVEAKNYEEIAKVEKLKPLEVELRRLEDLSESIVNDFAYMKKREEEMRDTNESTNTRVLYFSIFSMFCLIGLATWQVFYLRRFFKAKKLIE
In the case of B1, the binding [1] is reported as “no binding” and the binding (GST:RAB21) is reported as “no binding”.
